PubChem BioAssay AID493246 – Drosophila RNAi Screening Center, 2011

Purpose: 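Genome-wide search for dsRNAs that reduce cell number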 (primary screen)
Cell system: Drosophila Kc and S2R+ cells
Reagent: long dsRNA against Drosophila genes
Read-out: 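Cell number per well after knock-down, printed as raw plate values; calls were based on per-plate z-scores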
Direction: Kc cell number and S2R+ cell number: higher = more cells remaining
Hit rule: 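Active when the per-plate z-score of cell number is 3 or more in the direction of fewer cells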
The deposit covers about 21,000 reagents; this is a random part of those that have a named target and a result. In the full data, 429 (2%) got an active call. 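Values are raw and not normalised between plates; calls rest on per-plate z-scores that were not deposited.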 Names joined by + are all predicted targets of the reagent. Not stated in the record: the amount of reagent, the time to read-out.

no.	gene knocked down	dsRNA	Kc cell number, rep 1	Kc cell number, rep 2	S2R+ cell number, rep 1	S2R+ cell number, rep 2	Call
1	CG10561	DRSC02068	1.30e6	1.36e6	1.31e6	1.31e6	inactive
2	CG13982	DRSC02314	1.52e6	1.27e6	1.07e6	1.20e6	inactive
3	CG7084	DRSC16194	1.56e6	1.60e6	1.17e6	1.23e6	inactive
4	CG32816	DRSC17337	1.12e6	1.32e6	1.00e6	1.09e6	inactive
5	CG32551	DRSC19259	1.66e6	1.95e6	1.14e6	1.29e6	inactive
6	Pgd	DRSC18697	5.04e5		8.10e5		inactive
7	Pak	DRSC12602	1.61e6	1.61e6	1.22e6	1.23e6	inactive
8	Jhe	DRSC07174	1.49e6	1.52e6	1.13e6	1.26e6	inactive
9	CG5172	DRSC19936	1.93e6	1.94e6	1.14e6	1.33e6	inactive
10	CG17717	DRSC18130	1.51e6	1.49e6	1.02e6	1.11e6	inactive
11	CG17839	DRSC10290	1.43e6	1.51e6	1.38e6	1.48e6	inactive
12	CG17839	DRSC10291	1.51e6	1.72e6	1.21e6	1.36e6	inactive
13	Ugt37B1	DRSC03225	1.59e6	1.55e6	1.27e6	1.40e6	inactive
14	Cdlc2	DRSC00743	1.48e6	1.48e6	9.83e5	1.06e6	inactive
15	CG33465	DRSC05587	1.58e6	1.62e6	1.08e6	1.20e6	inactive
16	CG32365	DRSC10040	1.44e6	1.37e6	1.28e6	1.26e6	inactive
17	CG32365	DRSC10041	2.15e5	2.43e5	4.58e5	5.88e5	active
18	CG32365	DRSC10977	1.25e6	1.21e6	5.74e5	6.99e5	active
19	CG12288	DRSC02155	1.55e6	1.60e6	1.19e6	1.33e6	inactive
20	Rbp6	DRSC09462	1.52e6	1.63e6	1.25e6	1.43e6	inactive
21	Rbp6	DRSC09464	1.69e6	1.91e6	1.25e6	1.38e6	inactive
22	Rbp6	DRSC10072	1.74e6	1.85e6	1.28e6	1.42e6	inactive
23	Rbp6	DRSC10073	1.72e6	1.84e6	1.32e6	1.32e6	inactive
24	Rbp6	DRSC10662	1.68e6	1.82e6	1.31e6	1.39e6	inactive
25	EMC10	DRSC11850	1.63e6	1.77e6	1.37e6	1.46e6	inactive
26	Cyp6a17	DRSC07378	1.48e6	1.54e6	1.09e6	1.02e6	inactive
27	AQP	DRSC06122	1.52e6	1.50e6	1.19e6	1.24e6	inactive
28	Eig71Ef	DRSC11153	1.53e6	1.55e6	1.16e6	1.39e6	inactive
29	d-cup	DRSC14846	1.79e6	1.87e6	1.29e6	1.48e6	inactive
30	CR13656	DRSC13705	1.39e6	1.64e6	1.01e6	1.12e6	inactive
31	CR13656	DRSC14656	1.39e6	1.38e6	1.00e6	1.08e6	inactive
32	Pdcd4	DRSC19360	1.62e6	1.60e6	1.02e6	1.12e6	inactive
33	CG8814	DRSC00707	1.30e6	1.39e6	8.02e5	9.20e5	inactive
34	mfrn	DRSC15687	1.50e6	1.53e6	6.86e5	7.88e5	inactive
35	Sas10	DRSC18355	1.53e6	1.56e6	1.01e6	1.19e6	inactive
36	CG9521	DRSC20196	1.47e6	1.50e6	1.08e6	1.19e6	inactive
37	CG17826	DRSC10289	1.36e6	1.40e6	1.20e6	1.26e6	inactive
38	CG34124	DRSC00849	1.62e6	1.60e6	1.08e6	1.26e6	inactive
39	ZnT49B	DRSC07225	1.62e6	1.62e6	1.19e6	1.32e6	inactive
40	acj6	DRSC20304	6.37e5		8.78e5		inactive
41	Got1	DRSC07177	1.31e6	1.39e6	1.14e6	1.16e6	inactive
42	CG4988	DRSC02800	1.77e6	1.75e6	1.28e6	1.35e6	inactive
43	CG6271	DRSC16006	4.91e5		8.09e5		inactive
44	Atg18b	DRSC03108	1.32e6	1.49e6	1.06e6	1.11e6	inactive
45	Mccc1	DRSC15417	5.27e5		7.53e5		inactive
46	CG3408	DRSC10360	1.28e6	1.34e6	1.23e6	1.33e6	inactive
47	Obp47b + CG7741	DRSC06330	1.69e6	1.75e6	1.38e6	1.49e6	inactive
48	CG2816	DRSC00539	1.63e6	1.65e6	1.24e6	1.39e6	inactive
49	CG15385	DRSC00399	1.65e6	1.71e6	1.10e6	1.23e6	inactive
50	CG15577	DRSC18065	1.66e6	1.72e6	1.08e6	1.18e6	inactive
51	FucT6	DRSC19848	5.88e5		8.35e5		inactive
52	CG8617	DRSC07223	1.48e6	1.46e6	1.14e6	1.27e6	inactive
53	CG16953	DRSC15167	1.58e6	1.60e6	1.35e6	1.38e6	inactive
54	CG31523	DRSC12009	1.77e6	1.86e6	1.17e6	1.41e6	inactive
55	CG31523	DRSC12337	1.60e6	1.76e6	1.33e6	1.33e6	inactive
56	CkIalpha	DRSC20231	1.58e6	1.56e6	8.45e5	9.32e5	inactive
57	CanB	DRSC18449	1.46e6	1.54e6	1.00e6	1.21e6	inactive
58	CG15771	DRSC18077	1.51e6	1.49e6	9.98e5	1.08e6	inactive
59	CG6254	DRSC16002	1.66e6	1.74e6	1.27e6	1.40e6	inactive
